Reference: the supplement of paper PMC4604168 (melanoma cell lines)
Some of the results follow. Repeats are few or missing, and single values can be far off.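 Imaging used 1,536-well plates; nuclei positive for cleaved PARP by antibody were divided by total DNA-stained nuclei to yield the apoptosis fraction. Doses for screening kept most cells viable, and cell lines differ markedly in resting and induced cleaved-PARP levels.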

Tests used:
Assay in all cases: cleaved PARP positive nuclei fraction relative to DMSO control; melanoma cells; higher = more apoptosis
Conditions in all cases: library dose: low library concentration; 72 h
501Mel = test system: 501Mel
A101D = test system: A101D
A2058 = test system: A2058
A375 = test system: A375
C32 = test system: C32
CBRC008 = test system: CBRC008 (line from a melanoma biopsy)
CBRC013 = test system: CBRC013 (line from a melanoma biopsy)
CBRC014 = test system: CBRC014 (line from a melanoma biopsy)
CBRC016 = test system: CBRC016 (line from a melanoma biopsy)
CBRC017 = test system: CBRC017 (line from a melanoma biopsy)
COLO792 = test system: COLO792
COLO800 = test system: COLO800
COLO829 = test system: COLO829
G361 = test system: G361
IPC-298 = test system: IPC-298
IST-MEL1 = test system: IST-MEL1
LB2518-MEL = test system: LB2518-MEL
LOXIMVI = test system: LOXIMVI
MEL-HO = test system: MEL-HO

SMILES	cleaved PARP positive nuclei fraction (501Mel) [%]	cleaved PARP positive nuclei fraction (A101D) [%]	cleaved PARP positive nuclei fraction (A2058) [%]	cleaved PARP positive nuclei fraction (A375) [%]	cleaved PARP positive nuclei fraction (C32) [%]	cleaved PARP positive nuclei fraction (CBRC008) [%]	cleaved PARP positive nuclei fraction (CBRC013) [%]	cleaved PARP positive nuclei fraction (CBRC014) [%]	cleaved PARP positive nuclei fraction (CBRC016) [%]	cleaved PARP positive nuclei fraction (CBRC017) [%]	cleaved PARP positive nuclei fraction (COLO792) [%]	cleaved PARP positive nuclei fraction (COLO800) [%]	cleaved PARP positive nuclei fraction (COLO829) [%]	cleaved PARP positive nuclei fraction (G361) [%]	cleaved PARP positive nuclei fraction (IPC-298) [%]	cleaved PARP positive nuclei fraction (IST-MEL1) [%]	cleaved PARP positive nuclei fraction (LB2518-MEL) [%]	cleaved PARP positive nuclei fraction (LOXIMVI) [%]	cleaved PARP positive nuclei fraction (MEL-HO) [%]
CCCCCCCCCCCCCCCCCCOP(=O)([O-])OC1CC[N+](C)(C)CC1 [Perifosine] + CO[C@@H]1[C@H](N(C)C(=O)c2ccccc2)C[C@H]2O[C@]1(C)n1c3ccccc3c3c4c(c5c6ccccc6n2c5c31)C(=O)NC4 [Midostaurin] (first compound 0.4 µM, partner dose 0.08 µM)	260	95.4	177	1080	36	75.8	129	93.2	199	123	61.3	79.5	111	98.5	47.5	100	108	55.7	134
O=c1[nH]nc(Sc2ncc([N+](=O)[O-])s2)n1-c1ccc2c(c1)OCCO2 + NC(=O)Nc1cc(-c2cccc(F)c2)sc1C(=O)N[C@H]1CCCNC1 [AZD7762] (first compound 0.2 µM, partner dose 0.02 µM)	74.3	111	53.7	352	122	80.6	176	81.1	186	78.3	153	150	74.3	101	83.8	123	63.4	22.4	101
Cc1cc(Nc2cc(N3CCN(C)CC3)nc(Sc3ccc(NC(=O)C4CC4)cc3)n2)n[nH]1 [Tozasertib] + OCCn1cc(-c2cnc3nnn(Cc4ccc5ncccc5c4)c3n2)cn1 [PF04217903] (first compound 0.006 µM, partner dose 1 µM)	82.1	87.7	134	77.8	145	149	106	88.5	75.8	78.9	80.2	88.9	87	153	94.6	51.3	46	60.8	84.3
O=C(Nc1cc(C(F)(F)F)cc(C(F)(F)F)c1)c1cc(Cl)ccc1O + O=C(O)c1ccc(-c2c[nH]c3ncc(-c4ccccc4)cc23)cc1C1CCCC1 [GSK650394] (first compound 0.016 µM, partner dose 0.16 µM)	89.3	83.4	126	97.9	130	168	170	97.1	132	128	103	114	86.2	36	96	35.5	93.7	41.3	193
O=c1[nH]nc(Sc2ncc([N+](=O)[O-])s2)n1-c1ccc2c(c1)OCCO2 + OCCn1cc(-c2cnc3nnn(Cc4ccc5ncccc5c4)c3n2)cn1 [PF04217903] (first compound 0.2 µM, partner dose 1 µM)	73.2	76.7	78	56.7	85.3	114	88.9	89.9	83.5	267	144	55.5	90	131	181	102	47.1	109	86.1
Cc1cn(-c2cc(NC(=O)c3ccc(C)c(Nc4nccc(-c5cccnc5)n4)c3)cc(C(F)(F)F)c2)cn1 [nilotinib] + Cc1cc(N2CCOCC2)cc2[nH]c(-c3c(NC[C@@H](O)c4cccc(Cl)c4)cc[nH]c3=O)nc12 [BMS536924] (first compound 0.2 µM, partner dose 0.2 µM)	90.4	83.7	79.5	149	204	356	127	97.1	105	91.1	130	84.9	76.3	146	49.3	50.4	111	163	77.2
N#CC[C@H](C1CCCC1)n1cc(-c2ncnc3[nH]ccc23)cn1 [ruxolitinib] + Cc1cc(N2CCOCC2)cc2[nH]c(-c3c(NC[C@@H](O)c4cccc(Cl)c4)cc[nH]c3=O)nc12 [BMS536924] (first compound 1 µM, partner dose 0.2 µM)	440	37.1	203	104	30.8	397	90.6	72.6	94.9	99.8	66.2	57.1	82.2	74.7	43.1	59.7	76.8	87.7	68.6
O=C(Nc1cc(C(F)(F)F)cc(C(F)(F)F)c1)c1cc(Cl)ccc1O + CC1(C)NC(=O)N(c2ccc([N+](=O)[O-])c(C(F)(F)F)c2)C1=O [nilutamide] (first compound 0.016 µM, partner dose 1 µM)	89.2	76.5	28.5	53.3	42.2	211	92.9	73.5	98.9	126	68.7	52.4	135	85.1	48.8	55.4	68.9	94	65.1
